No constants are given. Whether binding was seen depends on the method and setting. In cells and extracts the contact can be indirect. Some entries that bind do so weakly or less than the wild type.
Columns and labels:
[1] = biological target: High-mobility group box 1 (HMGB1), endogenous human (human (endogenous in Huh7, L02, HepG2.2.15, 293T cells and patients' liver)) (UniProt P09429); experiment: co-IP; liver samples from HBV patients, compared with controls
[2] = biological target: High-mobility group box 1 (HMGB1), endogenous human (human (endogenous in Huh7, L02, HepG2.2.15, 293T cells and patients' liver)) (UniProt P09429); experiment: co-IP
[3] = biological target: HMGB1, endogenous mouse (mouse (endogenous in mouse liver)) (UniProt P63158); experiment: co-IP; liver samples from HBx-transgenic mice, compared with controls

Chains of the proteins cited; added tags and fusions are not shown.
UniProt P09429: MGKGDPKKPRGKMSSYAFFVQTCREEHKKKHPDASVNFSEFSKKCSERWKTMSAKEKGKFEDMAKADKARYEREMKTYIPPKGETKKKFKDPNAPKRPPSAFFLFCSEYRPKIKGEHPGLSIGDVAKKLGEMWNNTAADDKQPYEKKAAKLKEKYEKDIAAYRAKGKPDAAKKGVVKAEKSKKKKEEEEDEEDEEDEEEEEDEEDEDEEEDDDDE
UniProt P63158: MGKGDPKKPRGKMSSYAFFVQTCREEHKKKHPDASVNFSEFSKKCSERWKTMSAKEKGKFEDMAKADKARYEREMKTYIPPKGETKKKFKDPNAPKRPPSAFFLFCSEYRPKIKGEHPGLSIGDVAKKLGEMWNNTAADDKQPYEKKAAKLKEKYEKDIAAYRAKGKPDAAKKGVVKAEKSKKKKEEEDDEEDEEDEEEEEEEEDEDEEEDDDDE
UniProt Q14457: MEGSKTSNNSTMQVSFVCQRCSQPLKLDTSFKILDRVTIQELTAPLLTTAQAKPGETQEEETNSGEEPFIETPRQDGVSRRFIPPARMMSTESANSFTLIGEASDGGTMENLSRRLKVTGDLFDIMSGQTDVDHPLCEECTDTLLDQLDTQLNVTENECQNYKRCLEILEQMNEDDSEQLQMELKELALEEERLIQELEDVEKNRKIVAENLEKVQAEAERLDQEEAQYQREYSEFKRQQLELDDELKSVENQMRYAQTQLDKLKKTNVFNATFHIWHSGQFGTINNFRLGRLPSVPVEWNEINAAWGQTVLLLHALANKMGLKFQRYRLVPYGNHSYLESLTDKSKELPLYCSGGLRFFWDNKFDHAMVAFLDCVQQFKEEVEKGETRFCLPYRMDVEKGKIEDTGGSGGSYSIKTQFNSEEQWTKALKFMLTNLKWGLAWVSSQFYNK
UniProt O88597: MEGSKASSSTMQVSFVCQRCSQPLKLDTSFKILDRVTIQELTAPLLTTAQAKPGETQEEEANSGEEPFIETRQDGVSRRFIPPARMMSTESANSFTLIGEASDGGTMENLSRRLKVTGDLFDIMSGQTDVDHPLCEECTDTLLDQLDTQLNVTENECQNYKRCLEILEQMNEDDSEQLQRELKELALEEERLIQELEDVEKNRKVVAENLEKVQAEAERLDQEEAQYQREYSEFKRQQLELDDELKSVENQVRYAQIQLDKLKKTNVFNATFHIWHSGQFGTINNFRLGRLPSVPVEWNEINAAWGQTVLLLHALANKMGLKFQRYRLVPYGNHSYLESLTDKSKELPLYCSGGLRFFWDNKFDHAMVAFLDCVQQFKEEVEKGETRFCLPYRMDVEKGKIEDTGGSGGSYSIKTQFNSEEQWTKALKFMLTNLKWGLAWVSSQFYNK

Row | binding [1] | binding [2] | binding [3] | Substance
1 | binds | binds | – | Beclin1, endogenous human (from UniProt Q14457 1-450)
2 | – | – | binds | Beclin1, endogenous mouse (from UniProt O88597 1-448)

Source: paper PMC5830655
